The whole screen tested about 300,000 compounds, of which about 5,400 (1.8%) were called active. The inconclusive results got no clear call from the source; some entries with a clear call stand among them for comparison. Calls come from the whole dose curve; tested in HEK293 cells. Potencies beside an inconclusive call are fits to weak or partial responses and may not hold up.
Experiment: qHTS for inhibitors of binding or entry into cells for Marburg Virus
Conditions: Marburg virus pseudotyped entry inhibition, cell reporter; series mostly up to 37.8 µM
Potency is the fitted concentration of half-maximal effect.

SMILES | Potency
Cc1ccc(OCC(=O)Nc2nonc2-c2ccc(Br)cc2)cc1C | inactive
COc1cccc(CN(c2ccc3c(c2)CCC3)S(=O)(=O)c2ccc(-n3cnnn3)c(OC)c2)c1 | inconclusive: 8.2 µM [inhibitor, partial curve]
Cc1cc(C)n(-c2nc(NCC3CCCO3)c3c4c(sc3n2)COC(C)(C)C4)n1 (stereo unspecified) | inconclusive: 22.4 µM [inhibitor, single point]
COc1ncccc1C(=O)N1CCCC(C(=O)c2cccc(OC(C)C)c2)C1 (stereo unspecified) | inactive
CC(NC(=O)COC(=O)c1ccc(S(=O)(=O)N2CCOCC2)cc1)c1ccccc1 (stereo unspecified) | inconclusive: 5.62 µM [inhibitor, single point]
Cc1ccsc1C(=O)N1CC(=O)Nc2ccccc21 | inconclusive: 2.82 µM [inhibitor, full curve]
COc1ccc(NC(=O)c2cccnc2N2CCCC2)cc1 | inconclusive: 32.6 µM [inhibitor, single point]
CN(CC(=O)NC1CC1)S(=O)(=O)c1ccc(Br)cc1 | inactive
NS(=O)(=O)c1ccc(N2N=C(c3ccc(Br)cc3)CC2c2ccc(F)cc2)cc1 (stereo unspecified) | active: 10 µM
CC/C(=N/Nc1cccc(Cl)c1)c1cnnc(SC)n1 | inactive
O=C(O)c1ccc2nc(-c3ccccc3)sc2c1 | active: 1.46 µM
N#Cc1c(C(F)(F)F)cc(-c2cccs2)nc1SCc1ccc(Cl)nc1 | inconclusive: 0.58 µM [activator, partial curve, poor fit]
CC1CCN(C(=O)CCc2ccc(Oc3cc([N+](=O)[O-])cc([N+](=O)[O-])c3)cc2)CC1 | inconclusive: 35.5 µM [inhibitor, single point]
CCCOc1ccc(-c2cn3ccccc3n2)cc1[N+](=O)[O-] | inconclusive: 1.78 µM [activator, partial curve, poor fit]
CCCn1cc(SCC(=O)Nc2cc(C)on2)c2ccccc21 | inactive
Cc1cc(C)c(-c2cc(NC(=O)COC(=O)c3ccc(C#N)cc3)n(-c3ccccc3)n2)cc1C | inconclusive: 3.55 µM [inhibitor, single point]
CCc1c(C)sc(NC(=O)CCc2ccc(OC)cc2)c1C(N)=O | inconclusive: 0.891 µM [inhibitor, single point]
CC(C)n1c(O)c(N=NC(=O)Cc2csc(N3CCOCC3)n2)c2ccccc21 | inconclusive: 10 µM [inhibitor, partial curve, poor fit]
COc1ccc(C(CC(=O)N2CCCC2)c2ccc(F)cc2)cc1 (stereo unspecified) | inconclusive: 25.1 µM [inhibitor, single point]
Cc1cc(C(=O)CSc2nc3ccccc3c(=O)n2C)c(C)n1Cc1ccc2c(c1)OCO2 | inconclusive: 11.6 µM [inhibitor, partial curve, poor fit]
O=C(Nc1ccccc1-c1nnn(CC(=O)N2CCCc3ccccc32)n1)c1cccc(Cl)c1 | inconclusive: 3.98 µM [inhibitor, partial curve, poor fit]
Cc1nc2ccccc2n1/N=C/c1ccc([N+](=O)[O-])s1 | inconclusive: 3.98 µM [inhibitor, partial curve, poor fit]

Not a retest: 2 of the compounds above.
SMILES | Potency
COc1ccc(C(CC(=O)N2CCCC2)c2ccc(F)cc2)cc1 (stereo unspecified) | inconclusive: 25.1 µM [inhibitor, single point]
Cc1cc(C(=O)CSc2nc3ccccc3c(=O)n2C)c(C)n1Cc1ccc2c(c1)OCO2 | inconclusive: 11.6 µM [inhibitor, partial curve, poor fit]

More structures

SMILES | Potency
COc1ccc(C(=O)C2CN(C)CC2C(=O)c2ccc(OC)cc2)cc1 (stereo unspecified) | inconclusive: 25.1 µM [inhibitor, single point]
O=C(N/C(=C\c1ccccc1)C(=O)N1CCOCC1)c1ccc(Br)o1 | inconclusive: 3.55 µM [inhibitor, single point]
CCCCNC(=S)N=Nc1c(O)n(Cc2ccccc2)c2ccccc12 | inactive
CCOc1ccc(S(=O)(=O)NCCC(=O)NCC(c2cccs2)N(C)C)cc1 (stereo unspecified) | inconclusive: 0.112 µM [activator, full curve, poor fit]
CC(=O)c1cc(CC=C(C)C)c(O)cc1O | inconclusive: 35.5 µM [inhibitor, single point]
CC(C)C(C)(C#N)NC(=O)CSc1nc2scc(-c3ccc(F)cc3)c2c(=O)n1Cc1ccccc1 (stereo unspecified) | inconclusive: 10 µM [inhibitor, partial curve]
O=C(CCc1ccc(S(=O)(=O)NC2CCCCC2)cc1)NCc1ccccn1 | inactive
O=C(NCc1ccc2c(c1)OCO2)c1ccc(CS(=O)(=O)c2cccc(C(F)(F)F)c2)o1 | inconclusive: 15.8 µM [inhibitor, single point]
CN1CCN(Cc2nc3ccccc3c(=O)n2Cc2nc(-c3cccc([N+](=O)[O-])c3)cs2)CC1 | inconclusive: 5.01 µM [inhibitor, full curve, poor fit]
COc1cc2c(cc1OC)[C@@H]1O[C@](c3ccsc3)(C2)OC2=C1C(=O)CC(C)(C)C2 | inactive
Cc1ccc([N+](=O)[O-])cc1N(CC(=O)Nc1ccc(S(=O)(=O)Nc2cccc(C(F)(F)F)c2)cc1)S(C)(=O)=O | inconclusive: 14.1 µM [inhibitor, partial curve, poor fit]
O=C(/C(=C(/[O-])c1ccccc1)[n+]1ccccc1)c1ccc([N+](=O)[O-])cc1 | inconclusive: 35.5 µM [activator, single point]
COc1ccc(-c2nnc(SCCOc3ccccc3C)o2)cc1OC | inconclusive: 1.12 µM [inhibitor, partial curve, poor fit]
O=C(CSc1nnc(CNC(=O)C23CC4CC(CC(C4)C2)C3)n1-c1ccccc1)Nc1ccccc1 | inconclusive: 35.5 µM [inhibitor, single point]
COC(=O)c1c(NC(=O)c2cccc(S(=O)(=O)N3CCN(C)CC3)c2)sc(C)c1C | inconclusive: 25.1 µM [inhibitor, single point]
COc1cccc(C(=O)NC2CC(C)(C)Cc3c2cnn3-c2cccc(F)c2)c1OC (stereo unspecified) | inconclusive: 35.5 µM [inhibitor, single point]
CC(C)(C)OC(=O)N1CCC[C@H]1c1nnc(SCc2ccccc2Cl)o1 | inactive
O=C(Nc1cccnc1)c1cc(-c2ccc(Cl)cc2Cl)on1 | inconclusive: 2.82 µM [activator, partial curve, poor fit]
C/C(=N\Nc1nncc2ccccc12)c1ccc(C(C)(C)C)cc1 | inconclusive: 4.47 µM [activator, single point]
O=C(NN=C1CCCCCC1)c1ccncc1 | inactive
Cc1nnc(SC(=O)N2c3ccccc3Sc3ccccc32)s1 | inconclusive: 29.1 µM [inhibitor, single point]
COc1cc2nc(=S)n(CCCN3CCOCC3)c(N)c2cc1OC | inconclusive: 15.8 µM [activator, partial curve, poor fit]

SMILES | Potency
COc1ccc(/C=C/C(=O)NCC(=O)N=Nc2c(O)[nH]c3ccc([N+](=O)[O-])cc23)cc1 | inconclusive: 35.5 µM [activator, single point]
O=C(Nc1ccccc1C(=O)NCc1ccccc1)c1ccco1 | inactive
O=C(COc1ccccc1[N+](=O)[O-])Nc1ccc(Br)cc1 | inconclusive: 2.82 µM [activator, partial curve, poor fit]
O=C(c1cc(N2C(=O)C3C4CCC(C4)C3C2=O)ccc1Cl)N1CCN(c2ccccc2)CC1 (stereo unspecified) | inconclusive: 1.26 µM [inhibitor, single point]
COc1ccccc1N1CCN(C(c2ccc(F)cc2)c2nnnn2C(C)C)CC1 (stereo unspecified) | inconclusive: 2.51 µM [inhibitor, partial curve, poor fit]
Cc1ccc(NC(=O)Cn2c(=O)n(Cc3ccc(F)cc3)c(=O)c3cccnc32)cc1C | inactive
O=C(Nc1ccc(S(=O)(=O)N(Cc2ccccc2)c2ccccc2)cc1)c1ccccc1F | inconclusive: 0.631 µM [inhibitor, full curve, poor fit]
COc1ccc(NC(=O)c2cn(CCC#N)nc2-c2cccc([N+](=O)[O-])c2)cc1 | inconclusive: 35.5 µM [inhibitor, single point]
O=C(Cc1csc(N2CCOCC2)n1)N/N=C/c1ccc(O)c(O)c1O | inactive
CS(=O)(=O)N1CCN(Cc2ccc(C(F)(F)F)cc2)CC1 | inactive
CC(CNC(=O)CN(C)CC(=O)Nc1ccccc1Br)c1ccccc1 (stereo unspecified) | inconclusive: 5.62 µM [activator, full curve, poor fit]
COc1ccc(OC)c(C2=Nn3c(nnc3-c3cccc(OC(C)C)c3)SC2)c1 | inconclusive: 32.6 µM [inhibitor, single point]
Cc1cc(SCC#N)n2nc(C)c(-c3ccccc3)c2n1 | inactive
O=C(Nc1ccc(Oc2cccc3ccccc23)cc1)c1ccco1 | inconclusive: 17.8 µM [inhibitor, single point]
CCCCSc1ncc(C(=O)OCC)c(N)n1 | inconclusive: 0.0891 µM [activator, full curve, poor fit]
Cc1ccc(N2CC(C(=O)OCC(=O)c3c(N)n(CC(C)C)c(=O)n(C)c3=O)CC2=O)cc1 (stereo unspecified) | inactive
CNc1ncnc2c1cnn2C1CCCCO1 (stereo unspecified) | inactive
CCn1c(C(=O)Nc2ccccc2C(=O)OC)cc2sc(Cl)cc21 | inactive
CC1CCCCN1C(=O)COC(=O)CNC(=O)c1ccc(Cl)cc1Cl (stereo unspecified) | inconclusive: 0.501 µM [activator, full curve, poor fit]
Cc1ccc(-n2c(SCC(=O)N3Cc4ccccc4CC3C(=O)O)nnc2-c2cccnc2)c(C)c1 (stereo unspecified) | inactive
CC1CCc2c(sc3nc(SCC(=O)NCc4ccco4)nc(N)c23)C1 (stereo unspecified) | inconclusive: 35.5 µM [inhibitor, single point]
COc1cc(OC)c(NC(=O)Cn2cccc2)cc1Cl | inconclusive: 6.51 µM [activator, single point]

Reference: PubChem BioAssay AID540276 (National Center for Advancing Translational Sciences (NCATS), 2011)
